In PMC3510510, “Structural insight of a concentration-dependent mechanism by which YdiV inhibits Escherichia coli flagellum biogenesis and motility” (Nucleic Acids Research, 2012):
No constants are given. Whether binding was seen depends on the method and setting. For some assays here: In cells and extracts the contact can be indirect. Some entries that bind do so weakly or less than the wild type. For some assays here: Sequences can lack the tags named with a protein.

T1: FlhC-His (E. coli) (UniProt P0ABY7)
T1 sequence: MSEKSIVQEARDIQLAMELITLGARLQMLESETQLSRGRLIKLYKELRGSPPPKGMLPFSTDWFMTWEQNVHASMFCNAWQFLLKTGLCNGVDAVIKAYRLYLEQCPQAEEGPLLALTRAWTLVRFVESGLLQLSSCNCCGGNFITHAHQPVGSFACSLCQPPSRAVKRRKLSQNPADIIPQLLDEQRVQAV

B1: FlhD-His (natural protein, E. coli)
chain: MHTSELLKHIYDINLSYLLLAQRLIVQDKASAMFRLGINEEMATTLAALTLPQMVKLAETNQLVCHFRFDSHQTITQLTQDSRVDDLQQIHTGIMLSTRLLNDVNQPEEALRKKRA
notes: FlhD, E. coli; the flhD gene was cloned into pET29b and pGL01; source: E. coli BL21(DE3): co-expressed with YdiV (in lysate); purified as bait for the pull-down
B2: YdiV (natural protein, E. coli)
chain: MKIFLENLYHSDCYFLPIRDNQQVLVGVELITHFSSEDGTVRIPTSRVIAQLTEEQHWQLFSEQLELLKSCQHFFIQHKLFAWLNLTPQVATLLLERDNYAGELLKYPFIELLINENYPHLNEGKDNRGLLSLSQVYPLVLGNLGAGNSTMKAVFDGLFTRVMLDKSFIQQQITHRSFEPFIRAIQAQISPCCNCIIAGGIDTAEILAQITPFDFHALQGCLWPAVPINQITTLVQR
notes: YdiV, E. coli; the ydiV gene was cloned into pET29b and pGL01; His-tag removal by PPase is stated for prey proteins of the pull-down; The crystal of YdiV alone (3TLQ) was phased with Se-Met-YdiV; also called native YdiV; wild-type YdiV; source: E. coli BL21(DE3), purified (Ni2+-NTA, Source-Q, Superdex 200)

Key:
FlhC-His (E. coli) = target: T1, FlhC-His (E. coli); assay: pull-down; co-expression in E. coli BL21(DE3) of YdiV with FlhD-His, FlhC-His or FlhDC-His; complex isolated through the His-tagged partner (Supplementary Figure S3A-C)
YdiV = target: B2; assay: SEC; purified YdiV alone (Supplementary Figure S2); both purified

Binder: B1
- binding (FlhC-His (E. coli)): binds

Binder: B2
- binding (YdiV): no binding
